Data source: PubChem BioAssay AID504793 (Drosophila RNAi Screening Center, 2011)

- Purpose: 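Knock-downs allowing continued mitosis even though DNA is damaged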 (primary screen)
- Cell system: Drosophila S2R+ cells
- Reagent: long dsRNA against Drosophila genes, about 0.25 µg dsRNA per well
- Timing: 4 days of dsRNA, then 4 hours of drug before read-out
- Conditions: doxorubicin 0.5 µM for 4 hours to cause double-strand breaks, in cells also given a low, harmless dose of dsRNA against nbs to sensitise the assay
- Read-out: 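Mitotic index as the number of phospho-histone H3-positive cells in each well following doxorubicin, given as raw counts without normalisation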
- Reading the numbers: mitotic cells: higher = more cells in mitosis, weaker G2 arrest
- Call rule: 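Genes are called active only when high mitotic counts were reproduced with independent dsRNAs and mitosis was checked for delay without damage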
- Meaning of the calls: active = confirmed in follow-up tests; inactive = not confirmed
The screen tested about 23,000 reagents; shown is an unselected part of those that have a named target and a result. Over the whole deposit, 62 (0.27%) were called active. 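Calls come from follow-up tests whose scores are not deposited, so confirmed genes may have low counts here; counts are not normalised per plate.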 Raw values vary from plate to plate and are shown uncorrected. The numbers tell different reagents against one gene apart. Names joined by + are all predicted targets of the reagent.

Target gene	reagent no.	mitotic cells, replicate 1	activity call
FAM21 (Family with sequence similarity 21)	1	3	inactive
FAM21 (Family with sequence similarity 21)	2	6	inactive
Rpn12 (Regulatory particle non-ATPase 12)	1	52	inactive
Rpn12 (Regulatory particle non-ATPase 12)	2	46	inactive
CG7720	1	6	inactive
CG7720	2	6	inactive
CG17140 + CG17139	1	3	inactive
CG17140 + CG17139	2	6	inactive
CG18493	1		inactive
Obp58d (Odorant-binding protein 58d)	1	8	inactive
hwt (heavyweight)	1	6	inactive
hwt (heavyweight)	2	3	inactive
hwt (heavyweight)	3	2	inactive
CG11836	1	5	inactive
tud (tudor)	1	4	inactive
Fatp (retired record)	1	6	inactive
Gr61a (Gustatory receptor 61a)	1	4	inactive
Sin3A	1	2	inactive
Sin3A	2	3	inactive
CG42788	1	4	inactive
CG42788	2	9	inactive
CG42788	3	7	inactive
CG42788	4	11	inactive
Ir75c (Ionotropic receptor 75c)	1	4	inactive
Seipin	1	8	inactive
Zip48C (Zinc/iron regulated transporter-related protein 48C)	1	7	inactive
CG1986	1	3	inactive
CG1986	2	1	inactive
CG12355	1	6	inactive
CG12355	2	7	inactive
CG7443	1	1	inactive
GCS1 (Glucosidase 1)	1	8	inactive
GCS1 (Glucosidase 1)	2	8	inactive
Atg2 (Autophagy-related 2)	1	4	inactive
CG12672	1	17	inactive
CG12672	2	1	inactive
mRpL1 (mitochondrial ribosomal protein L1)	1	7	inactive
CG30344	1	7	inactive
CG30344	2	6	inactive
CG11456	1	7	inactive
tant (tantalus)	1	2	inactive
CG1492	1	6	inactive
CG3815	1	8	inactive
CG3815	2	3	inactive
Sema2b (Semaphorin 2b)	1	15	inactive
Sema2b (Semaphorin 2b)	2	3	inactive
Sema2b (Semaphorin 2b)	3	8	inactive
HERC2 (HECT and RLD domain containing protein 2)	1	4	inactive
Idi (Isopentenyl-diphosphate delta isomerase)	1	2	inactive
mri (mrityu)	1	6	inactive
mri (mrityu)	2	6	inactive
Nach	1	6	inactive
fzy (fizzy)	1	325	inactive
Ddx56 (DEAD-box helicase 56)	1	5	inactive
Ddx56 (DEAD-box helicase 56)	2	3	inactive
Polr1D + DCTN6-p27	1	9	inactive
CG3473	1	7	inactive
stg (string)	1	9	inactive
stg (string)	2	9	inactive
stg (string)	3	2	inactive
CG5004	1	13	inactive
CG5004	2	7	inactive
Kcmf1 (Potassium channel modulatory factor 1)	1	5	inactive
Kcmf1 (Potassium channel modulatory factor 1)	2	11	inactive
CG42458	1	13	inactive
CG42458	2	7	inactive
CG42458	3	5	inactive
CG42458	4	3	inactive
CG10734	1	10	inactive
Gpo1 (Glycerophosphate oxidase 1)	1	13	inactive
CSN3 (COP9 signalosome subunit 3)	1	5	inactive
CSN3 (COP9 signalosome subunit 3)	2	14	inactive
strat (stratum)	1	8	inactive
HemK2 + Snapin	1	2	inactive
psd (palisade)	1	1	inactive
psd (palisade)	2	1	inactive

Individual results from the entries so far.
Under “mitotic cells, replicate 1”, stg (string) #2 reads 9
Value for GCS1 (Glucosidase 1) #2 in “activity call”: inactive
Result for FAM21 (Family with sequence similarity 21) #1 in “activity call”: inactive
FAM21 (Family with sequence similarity 21) #2, activity call: inactive
Under “activity call”, CG42788 #3 has inactive
For “activity call”, CG30344 #1 is entered as inactive
